Laboratory results taken from article PMC12541625.

The chains behind the UniProt entries cited, without tags or fusion partners.
UniProt B2KF05: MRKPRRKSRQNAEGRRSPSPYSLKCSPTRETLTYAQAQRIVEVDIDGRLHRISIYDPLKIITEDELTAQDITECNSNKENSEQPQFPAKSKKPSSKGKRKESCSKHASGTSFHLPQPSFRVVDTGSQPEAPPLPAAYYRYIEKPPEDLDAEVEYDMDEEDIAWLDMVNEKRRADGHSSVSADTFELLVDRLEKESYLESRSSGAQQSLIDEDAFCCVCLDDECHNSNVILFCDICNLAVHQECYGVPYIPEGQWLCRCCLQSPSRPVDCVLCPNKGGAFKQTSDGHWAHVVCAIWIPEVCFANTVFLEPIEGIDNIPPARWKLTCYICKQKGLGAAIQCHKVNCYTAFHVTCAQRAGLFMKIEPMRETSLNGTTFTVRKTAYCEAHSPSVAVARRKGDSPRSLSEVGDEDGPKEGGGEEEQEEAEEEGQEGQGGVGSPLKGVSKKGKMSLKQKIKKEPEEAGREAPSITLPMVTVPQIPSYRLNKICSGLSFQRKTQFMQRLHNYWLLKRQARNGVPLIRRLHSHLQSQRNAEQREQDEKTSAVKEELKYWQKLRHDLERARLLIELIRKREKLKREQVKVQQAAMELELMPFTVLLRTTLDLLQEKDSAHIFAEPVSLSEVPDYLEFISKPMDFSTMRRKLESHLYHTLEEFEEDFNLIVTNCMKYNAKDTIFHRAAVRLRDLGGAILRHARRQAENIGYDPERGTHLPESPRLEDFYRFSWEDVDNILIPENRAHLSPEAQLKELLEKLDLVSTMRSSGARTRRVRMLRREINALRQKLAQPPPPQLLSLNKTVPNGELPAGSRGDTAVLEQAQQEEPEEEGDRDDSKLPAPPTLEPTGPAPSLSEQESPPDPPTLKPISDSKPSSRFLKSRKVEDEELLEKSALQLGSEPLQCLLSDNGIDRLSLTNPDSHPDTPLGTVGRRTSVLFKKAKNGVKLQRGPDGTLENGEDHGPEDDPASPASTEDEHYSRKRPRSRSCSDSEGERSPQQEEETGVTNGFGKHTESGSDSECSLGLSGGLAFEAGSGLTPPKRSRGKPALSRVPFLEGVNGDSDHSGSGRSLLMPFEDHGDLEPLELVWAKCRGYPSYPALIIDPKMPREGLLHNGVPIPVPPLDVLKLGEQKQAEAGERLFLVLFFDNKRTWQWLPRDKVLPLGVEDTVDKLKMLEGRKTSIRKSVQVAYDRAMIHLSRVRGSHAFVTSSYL
UniProt Q5SVQ0: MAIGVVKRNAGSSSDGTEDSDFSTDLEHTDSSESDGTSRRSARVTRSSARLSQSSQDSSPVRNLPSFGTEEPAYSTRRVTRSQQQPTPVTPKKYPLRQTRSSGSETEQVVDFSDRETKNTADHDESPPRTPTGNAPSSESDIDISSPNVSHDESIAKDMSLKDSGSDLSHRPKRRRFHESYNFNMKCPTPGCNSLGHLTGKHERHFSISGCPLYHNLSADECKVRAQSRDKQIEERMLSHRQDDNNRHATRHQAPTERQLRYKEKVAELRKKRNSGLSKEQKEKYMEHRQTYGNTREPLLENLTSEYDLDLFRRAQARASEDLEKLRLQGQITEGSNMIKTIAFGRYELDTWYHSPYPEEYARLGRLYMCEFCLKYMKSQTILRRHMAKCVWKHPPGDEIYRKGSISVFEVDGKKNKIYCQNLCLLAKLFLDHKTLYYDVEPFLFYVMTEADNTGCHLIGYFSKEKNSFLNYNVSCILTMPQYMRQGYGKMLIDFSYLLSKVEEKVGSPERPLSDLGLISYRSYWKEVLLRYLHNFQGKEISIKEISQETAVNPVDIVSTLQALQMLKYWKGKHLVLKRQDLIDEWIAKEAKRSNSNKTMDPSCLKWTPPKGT

Biological target: Flag-tagged full-length BRPF3 (UniProt B2KF05)
Assay: affinity purification with mass spectrometry; Co-IP / IP of BRPF3 from CFs followed by 4D-FastDIA LC-MS/MS (mass spectrometric) analysis

binding: binds
Substance: KAT7 (in mouse cardiac fibroblasts and mouse heart tissue) (from UniProt Q5SVQ0 1-613) (enzyme)

These are yes or no findings as the source states them, for the method shown. In cells and extracts the contact can be indirect. Here binding means that the protein was enriched with, or labelled near, the bait; the list need not be complete.
